These are yes or no findings as the source states them, for the method shown. For some of these results: Binding seen in cells or lysates may run through a third protein. Some binding calls cover weakened binding; strength is not graded here. Blank lines part the entries; values can stand above or below the substance they belong to.
What was measured:
[1] = target: Myc-DBD-PRAK fusion protein (p38 regulated/activated kinase fused to the Gal4 DNA binding domain, from pGBKT7-PRAK) (human) (UniProt Q8IW41); assay: two-hybrid; mating of AH109 expressing AD-DJ-1 with Y187 expressing DBD-PRAK, 30°C, 24 hrs; SD/-Ade/-His/-Leu/-Trp/X-α-gal plates, β-galactosidase activity
[2] = target: Myc-DBD-PRAK fusion protein (p38 regulated/activated kinase fused to the Gal4 DNA binding domain, from pGBKT7-PRAK) (human) (UniProt Q8IW41); assay: two-hybrid; library screen, Matchmaker GAL4 Two-hybrid System 3; pGBKT7-PRAK in AH109 as bait, human heart cDNA library in Y187 as prey; SD/-Ade/-His/-Leu/-Trp/X-α-gal plates, 30°C, 4–6 days; β-galactosidase by colony-lift filter
[3] = target: Flag-tagged DJ-1 (from pcDNA3-Flag-DJ-1) (human) (UniProt Q99497); assay: co-IP; HEK293 cells cotransfected with pcDNA3-HA-PRAK and pcDNA3-Flag-DJ-1; lysates precipitated with anti-Flag M2 beads, blotted with anti-HA
[4] = target: endogenous PRAK of Hela cells (human (endogenous in Hela)) (UniProt Q8IW41); assay: co-IP; endogenous proteins, lysate of nonstimulated Hela cells; protein A/G beads coupled with anti-PRAK antibody or IgG, blotted with anti-DJ-1

By UniProt entry, the sequences of proteins in these tests, tags left out. Where a name states a change or a piece, a line headed by the entry shows the natural chain unless it says otherwise. Chains listed by the source or under a name are the forms on record and can include a tag or linker.
UniProt Q8IW41: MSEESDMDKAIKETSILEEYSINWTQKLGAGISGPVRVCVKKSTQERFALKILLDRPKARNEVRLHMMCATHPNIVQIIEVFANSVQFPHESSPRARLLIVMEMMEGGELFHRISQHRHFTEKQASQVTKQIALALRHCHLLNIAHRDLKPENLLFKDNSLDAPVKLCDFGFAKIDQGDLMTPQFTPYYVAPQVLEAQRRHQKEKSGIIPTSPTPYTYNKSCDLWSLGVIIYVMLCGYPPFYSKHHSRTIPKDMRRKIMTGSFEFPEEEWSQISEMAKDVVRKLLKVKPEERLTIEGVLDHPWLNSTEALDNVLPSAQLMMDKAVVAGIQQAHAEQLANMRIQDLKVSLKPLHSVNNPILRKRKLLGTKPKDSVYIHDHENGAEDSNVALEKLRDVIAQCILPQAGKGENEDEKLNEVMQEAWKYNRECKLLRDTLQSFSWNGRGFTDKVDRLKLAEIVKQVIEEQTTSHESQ
HA-PRAK (from pcDNA3-HA-PRAK) (Q8IW41-2, form named): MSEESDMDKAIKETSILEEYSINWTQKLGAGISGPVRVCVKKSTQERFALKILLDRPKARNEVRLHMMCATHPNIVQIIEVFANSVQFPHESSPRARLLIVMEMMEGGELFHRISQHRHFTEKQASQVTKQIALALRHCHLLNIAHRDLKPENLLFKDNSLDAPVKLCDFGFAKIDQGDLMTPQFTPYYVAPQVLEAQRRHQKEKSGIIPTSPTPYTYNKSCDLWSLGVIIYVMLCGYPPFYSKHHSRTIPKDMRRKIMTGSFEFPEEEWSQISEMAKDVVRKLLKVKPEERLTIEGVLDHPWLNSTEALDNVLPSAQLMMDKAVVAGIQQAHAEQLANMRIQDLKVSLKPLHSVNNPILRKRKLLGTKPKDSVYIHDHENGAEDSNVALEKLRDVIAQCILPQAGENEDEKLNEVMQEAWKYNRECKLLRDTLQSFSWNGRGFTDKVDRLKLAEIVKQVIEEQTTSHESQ
UniProt Q99497: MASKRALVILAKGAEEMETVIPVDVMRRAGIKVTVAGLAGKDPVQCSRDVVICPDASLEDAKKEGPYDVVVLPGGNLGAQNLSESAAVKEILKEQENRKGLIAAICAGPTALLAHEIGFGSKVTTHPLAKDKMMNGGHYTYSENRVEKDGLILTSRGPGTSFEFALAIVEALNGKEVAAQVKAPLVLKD

binding [1]: binds
Substance: AD-DJ-1 (activation domain-fused DJ-1, from pGADT7-DJ-1) (from UniProt Q99497 1-189)

binding [2]: binds
Substance: clone 4 of the human heart cDNA library: DJ-1 (58-189 aa) (from UniProt Q99497 58-189) (domain or fragment)

binding [3]: binds
Substance: HA-PRAK (from pcDNA3-HA-PRAK) (from UniProt Q8IW41-2 1-471) (enzyme)

binding [4]: binds
Substance: endogenous DJ-1 of Hela cells (from UniProt Q99497 1-189)
